Laboratory results from patent US9744150B2, “Suspension containing micronized benzoyl peroxide” (Dow Pharmaceutical Sciences Inc., priority 2009, dated 2017).
Some entries share one result that the patent states for a list of compounds. For at least one compound, name, drawing or mass did not settle the structure.

Assay: surface tension by Du Noüy ring method, Krüss K20 EasyDyne tensiometer
Type: physicochemical
Conditions: solvent in water, from the data of Table 4
Experimental: As used herein, the term “surface tension” refers to the force required to increase the unit area of a surface of a liquid or of an interface between two liquids or between a liquid and a gas, generally stated in units of dynes/cm. Surface tensions described herein are measured by the Du Noüy ring method utilizing an EasyDyne tensiometer model K20 marketed by Krüss USA, Matthews, N.C.
Surface tension of a fluid containing water was determined prior to and after mixing with various concentrations of various water soluble organic solvents in water. […] The study was performed at room temperature utilizing a Kruss Surface Tensiometer, Model K20 EasyDyne (Kruss USA, Matthews, N.C.) and the results are shown in Table 4. Values for surface tension are in dynes/cm.
In the case of CCOCCOCCO [Ethoxy Diglycol NF, ethoxydiglycol], the “concentration suitable for the invention (surface tension less than 64 dynes/cm)” value (“concentration suitable for the invention” for short) was no less than 2.5%.
In the case of CC(C)O [Isopropyl Alcohol, isopropyl alcohol], the “concentration suitable for the invention” value was no less than 1%.
For CC1COC(=O)O1 (stereo not drawn) [Propylene Carbonate, propylene carbonate], the “concentration suitable for the invention” value was no less than 2.5%.
